Measured values published in the supplement of paper PMC10849652.
The list shows a part of the results.

The chains behind the UniProt entries cited, without tags or fusion partners. Where a name states a change or a piece, a line headed by the entry shows the natural chain unless it says otherwise.
UniProt Q14116, whole entry, looked up: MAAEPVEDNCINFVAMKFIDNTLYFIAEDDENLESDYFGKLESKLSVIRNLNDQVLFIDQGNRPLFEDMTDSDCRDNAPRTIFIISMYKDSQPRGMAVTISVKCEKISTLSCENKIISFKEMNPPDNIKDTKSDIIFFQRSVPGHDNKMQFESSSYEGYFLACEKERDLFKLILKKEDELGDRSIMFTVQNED
UniProt Q9Y6K9, whole entry, looked up: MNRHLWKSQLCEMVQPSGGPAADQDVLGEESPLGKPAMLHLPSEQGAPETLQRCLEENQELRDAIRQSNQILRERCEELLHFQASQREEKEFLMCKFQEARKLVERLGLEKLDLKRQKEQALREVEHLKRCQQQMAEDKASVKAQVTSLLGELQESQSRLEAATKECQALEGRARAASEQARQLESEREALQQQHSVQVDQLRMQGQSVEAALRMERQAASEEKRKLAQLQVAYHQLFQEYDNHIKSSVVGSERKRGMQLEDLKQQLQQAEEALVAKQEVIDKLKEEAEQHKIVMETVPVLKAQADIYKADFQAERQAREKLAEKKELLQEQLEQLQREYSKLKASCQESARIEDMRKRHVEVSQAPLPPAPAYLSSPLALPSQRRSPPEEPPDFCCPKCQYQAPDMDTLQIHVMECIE
UniProt P51617, whole entry, looked up: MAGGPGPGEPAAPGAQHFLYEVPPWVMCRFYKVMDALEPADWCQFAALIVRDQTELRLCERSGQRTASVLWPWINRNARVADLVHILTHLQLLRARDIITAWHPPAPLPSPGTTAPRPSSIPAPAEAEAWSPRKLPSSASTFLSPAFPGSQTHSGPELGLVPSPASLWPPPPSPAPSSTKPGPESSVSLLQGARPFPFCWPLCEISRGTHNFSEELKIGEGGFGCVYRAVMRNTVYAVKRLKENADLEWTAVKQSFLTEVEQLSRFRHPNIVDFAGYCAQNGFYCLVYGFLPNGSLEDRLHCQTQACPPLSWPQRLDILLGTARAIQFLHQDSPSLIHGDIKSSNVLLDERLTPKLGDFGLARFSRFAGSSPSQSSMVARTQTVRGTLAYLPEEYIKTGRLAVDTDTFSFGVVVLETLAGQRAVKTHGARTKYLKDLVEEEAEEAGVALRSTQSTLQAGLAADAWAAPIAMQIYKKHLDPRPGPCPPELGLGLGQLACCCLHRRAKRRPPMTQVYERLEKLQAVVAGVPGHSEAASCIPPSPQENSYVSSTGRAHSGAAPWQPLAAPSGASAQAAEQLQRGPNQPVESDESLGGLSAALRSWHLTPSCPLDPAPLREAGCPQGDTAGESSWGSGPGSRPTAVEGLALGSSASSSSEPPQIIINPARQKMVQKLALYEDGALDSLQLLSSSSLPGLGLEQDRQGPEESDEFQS
UniProt Q8WZA9: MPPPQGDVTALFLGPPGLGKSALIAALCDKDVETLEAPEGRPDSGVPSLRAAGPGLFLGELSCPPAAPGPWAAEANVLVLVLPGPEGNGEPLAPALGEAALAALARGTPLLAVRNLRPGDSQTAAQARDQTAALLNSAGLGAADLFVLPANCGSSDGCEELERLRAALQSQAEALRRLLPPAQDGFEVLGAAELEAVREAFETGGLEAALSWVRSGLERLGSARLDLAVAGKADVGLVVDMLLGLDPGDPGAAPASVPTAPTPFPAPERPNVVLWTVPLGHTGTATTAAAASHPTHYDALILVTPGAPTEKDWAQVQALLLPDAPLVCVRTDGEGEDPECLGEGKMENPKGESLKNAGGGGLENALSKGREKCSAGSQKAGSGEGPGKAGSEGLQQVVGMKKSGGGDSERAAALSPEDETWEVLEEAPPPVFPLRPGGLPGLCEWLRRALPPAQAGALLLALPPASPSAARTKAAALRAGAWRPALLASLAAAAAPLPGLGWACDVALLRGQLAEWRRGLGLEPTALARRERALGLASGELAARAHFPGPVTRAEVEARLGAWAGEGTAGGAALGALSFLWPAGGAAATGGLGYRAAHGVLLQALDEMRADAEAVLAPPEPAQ
UniProt Q9H0H0, whole entry, looked up: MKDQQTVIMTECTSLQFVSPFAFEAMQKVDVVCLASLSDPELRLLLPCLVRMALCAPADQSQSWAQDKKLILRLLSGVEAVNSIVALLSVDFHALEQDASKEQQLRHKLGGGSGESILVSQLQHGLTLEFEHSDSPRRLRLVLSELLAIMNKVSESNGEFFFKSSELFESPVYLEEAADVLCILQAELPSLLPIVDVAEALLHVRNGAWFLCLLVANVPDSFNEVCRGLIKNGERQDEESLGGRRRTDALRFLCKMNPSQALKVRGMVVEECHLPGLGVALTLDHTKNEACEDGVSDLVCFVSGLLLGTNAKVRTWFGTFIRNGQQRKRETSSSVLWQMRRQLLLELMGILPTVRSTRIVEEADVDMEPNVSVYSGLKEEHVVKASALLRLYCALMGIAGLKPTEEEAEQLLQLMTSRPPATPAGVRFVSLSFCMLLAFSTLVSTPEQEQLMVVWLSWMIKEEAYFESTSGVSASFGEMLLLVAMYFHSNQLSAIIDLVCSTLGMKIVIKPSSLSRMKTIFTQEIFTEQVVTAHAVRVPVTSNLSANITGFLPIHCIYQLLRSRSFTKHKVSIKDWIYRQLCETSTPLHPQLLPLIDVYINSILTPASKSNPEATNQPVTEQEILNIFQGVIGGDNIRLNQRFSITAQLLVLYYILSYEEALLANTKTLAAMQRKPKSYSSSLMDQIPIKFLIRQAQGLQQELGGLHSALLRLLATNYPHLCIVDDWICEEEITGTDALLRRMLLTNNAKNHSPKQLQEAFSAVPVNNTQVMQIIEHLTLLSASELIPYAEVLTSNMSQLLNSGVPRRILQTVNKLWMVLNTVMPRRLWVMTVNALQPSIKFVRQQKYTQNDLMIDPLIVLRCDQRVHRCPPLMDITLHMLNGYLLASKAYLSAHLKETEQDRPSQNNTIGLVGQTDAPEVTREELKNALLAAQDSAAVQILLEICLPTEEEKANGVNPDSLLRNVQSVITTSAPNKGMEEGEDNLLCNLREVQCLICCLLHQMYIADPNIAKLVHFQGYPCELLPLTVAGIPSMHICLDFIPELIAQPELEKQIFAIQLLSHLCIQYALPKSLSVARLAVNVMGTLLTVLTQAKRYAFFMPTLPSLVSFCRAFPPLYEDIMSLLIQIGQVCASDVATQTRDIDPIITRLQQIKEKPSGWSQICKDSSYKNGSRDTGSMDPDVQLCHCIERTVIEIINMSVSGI
UniProt P80217: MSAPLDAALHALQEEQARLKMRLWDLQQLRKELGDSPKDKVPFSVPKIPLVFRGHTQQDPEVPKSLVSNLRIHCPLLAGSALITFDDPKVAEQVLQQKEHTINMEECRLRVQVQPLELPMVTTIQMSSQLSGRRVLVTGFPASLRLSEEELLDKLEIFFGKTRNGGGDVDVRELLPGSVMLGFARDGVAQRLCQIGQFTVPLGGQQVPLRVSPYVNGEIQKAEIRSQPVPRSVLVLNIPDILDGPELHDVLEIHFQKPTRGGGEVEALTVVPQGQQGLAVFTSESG
UniProt Q8NBZ0, whole entry, looked up: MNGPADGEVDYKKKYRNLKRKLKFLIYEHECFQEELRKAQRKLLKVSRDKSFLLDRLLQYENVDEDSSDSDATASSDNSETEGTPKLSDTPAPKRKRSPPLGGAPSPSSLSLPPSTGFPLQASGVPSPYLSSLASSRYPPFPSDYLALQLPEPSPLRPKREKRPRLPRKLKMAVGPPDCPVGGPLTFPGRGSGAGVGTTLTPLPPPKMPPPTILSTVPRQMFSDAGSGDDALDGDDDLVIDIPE
UniProt P48735: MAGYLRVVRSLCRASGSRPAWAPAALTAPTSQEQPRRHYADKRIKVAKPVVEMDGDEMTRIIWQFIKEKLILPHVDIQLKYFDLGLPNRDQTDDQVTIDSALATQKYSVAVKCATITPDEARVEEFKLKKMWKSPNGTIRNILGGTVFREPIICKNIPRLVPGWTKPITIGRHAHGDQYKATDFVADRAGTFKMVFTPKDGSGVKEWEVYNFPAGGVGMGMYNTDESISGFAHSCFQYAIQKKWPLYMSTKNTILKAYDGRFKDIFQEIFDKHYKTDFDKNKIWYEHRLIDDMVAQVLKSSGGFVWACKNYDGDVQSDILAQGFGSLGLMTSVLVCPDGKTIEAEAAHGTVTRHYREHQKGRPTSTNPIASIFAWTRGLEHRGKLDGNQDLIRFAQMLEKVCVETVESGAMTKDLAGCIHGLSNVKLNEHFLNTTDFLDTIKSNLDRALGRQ
UniProt Q9NV88, whole entry, looked up: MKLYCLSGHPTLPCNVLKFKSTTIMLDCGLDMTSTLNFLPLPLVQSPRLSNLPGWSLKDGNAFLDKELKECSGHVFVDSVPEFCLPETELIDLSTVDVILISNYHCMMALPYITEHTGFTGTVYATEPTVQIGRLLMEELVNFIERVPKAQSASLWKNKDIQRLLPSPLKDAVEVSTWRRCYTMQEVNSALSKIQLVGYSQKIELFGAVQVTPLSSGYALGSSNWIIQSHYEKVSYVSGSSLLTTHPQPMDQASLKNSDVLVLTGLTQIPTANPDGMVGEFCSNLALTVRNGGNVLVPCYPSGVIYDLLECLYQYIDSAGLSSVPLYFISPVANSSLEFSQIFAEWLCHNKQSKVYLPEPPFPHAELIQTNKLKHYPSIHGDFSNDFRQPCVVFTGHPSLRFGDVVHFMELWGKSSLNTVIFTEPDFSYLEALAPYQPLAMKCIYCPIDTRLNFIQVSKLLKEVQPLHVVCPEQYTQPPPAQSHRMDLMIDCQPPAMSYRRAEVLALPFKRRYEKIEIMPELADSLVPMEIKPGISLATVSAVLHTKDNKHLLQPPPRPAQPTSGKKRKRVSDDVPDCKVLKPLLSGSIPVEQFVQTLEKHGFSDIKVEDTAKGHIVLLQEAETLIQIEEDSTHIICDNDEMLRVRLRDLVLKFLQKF
UniProt O75054: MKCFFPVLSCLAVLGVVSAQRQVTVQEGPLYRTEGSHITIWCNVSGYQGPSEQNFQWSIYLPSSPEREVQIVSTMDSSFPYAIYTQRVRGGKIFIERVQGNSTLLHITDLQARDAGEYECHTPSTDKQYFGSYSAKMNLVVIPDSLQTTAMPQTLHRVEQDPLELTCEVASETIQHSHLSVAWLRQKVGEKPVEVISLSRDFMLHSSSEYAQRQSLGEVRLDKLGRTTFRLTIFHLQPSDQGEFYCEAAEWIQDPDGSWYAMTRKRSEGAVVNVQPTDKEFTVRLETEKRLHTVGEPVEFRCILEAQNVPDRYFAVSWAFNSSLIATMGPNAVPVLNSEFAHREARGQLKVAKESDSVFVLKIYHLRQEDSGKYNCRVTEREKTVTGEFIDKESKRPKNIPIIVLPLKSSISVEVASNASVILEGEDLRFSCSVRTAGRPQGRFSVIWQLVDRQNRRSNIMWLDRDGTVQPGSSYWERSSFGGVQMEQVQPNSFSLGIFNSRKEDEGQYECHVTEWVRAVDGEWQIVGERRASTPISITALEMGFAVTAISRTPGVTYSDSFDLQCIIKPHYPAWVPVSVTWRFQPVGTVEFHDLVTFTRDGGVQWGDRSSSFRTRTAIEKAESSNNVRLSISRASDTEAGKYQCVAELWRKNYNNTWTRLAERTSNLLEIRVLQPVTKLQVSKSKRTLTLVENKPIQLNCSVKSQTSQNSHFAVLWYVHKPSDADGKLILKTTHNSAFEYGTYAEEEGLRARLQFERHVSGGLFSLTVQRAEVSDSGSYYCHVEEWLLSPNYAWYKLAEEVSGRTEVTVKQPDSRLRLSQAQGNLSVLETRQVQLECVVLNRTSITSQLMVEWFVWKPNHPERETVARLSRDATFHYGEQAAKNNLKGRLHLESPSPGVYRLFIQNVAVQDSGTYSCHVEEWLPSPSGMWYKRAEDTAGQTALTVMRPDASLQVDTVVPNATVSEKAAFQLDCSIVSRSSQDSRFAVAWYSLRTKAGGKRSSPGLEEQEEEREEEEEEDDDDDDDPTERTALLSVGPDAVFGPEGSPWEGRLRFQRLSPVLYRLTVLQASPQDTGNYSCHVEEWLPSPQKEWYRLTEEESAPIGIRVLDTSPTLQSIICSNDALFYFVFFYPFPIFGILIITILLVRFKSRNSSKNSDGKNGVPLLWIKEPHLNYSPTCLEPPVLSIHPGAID
UniProt P01876, whole entry, looked up: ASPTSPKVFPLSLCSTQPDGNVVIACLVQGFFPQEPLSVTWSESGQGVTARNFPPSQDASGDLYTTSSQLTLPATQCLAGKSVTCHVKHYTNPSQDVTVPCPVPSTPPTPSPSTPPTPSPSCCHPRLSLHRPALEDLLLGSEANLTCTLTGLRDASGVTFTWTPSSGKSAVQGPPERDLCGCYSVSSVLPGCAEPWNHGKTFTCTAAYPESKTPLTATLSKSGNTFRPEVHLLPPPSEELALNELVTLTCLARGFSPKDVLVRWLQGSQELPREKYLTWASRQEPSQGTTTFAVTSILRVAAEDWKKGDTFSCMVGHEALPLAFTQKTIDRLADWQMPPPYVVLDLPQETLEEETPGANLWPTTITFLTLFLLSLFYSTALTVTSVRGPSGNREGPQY
UniProt P0DMQ5: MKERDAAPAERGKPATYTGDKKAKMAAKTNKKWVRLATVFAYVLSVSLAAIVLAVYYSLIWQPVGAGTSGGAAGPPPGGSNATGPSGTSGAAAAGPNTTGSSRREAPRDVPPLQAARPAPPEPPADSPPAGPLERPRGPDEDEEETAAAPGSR

Compound: c1cn2cc(-c3ccc4cn[nH]c4c3)nc(Nc3ccc(N4CCOCC4)cc3)c2n1 [entospletinib]
Assay: log2 fold change, soluble protein after heating vs DMSO (PISA); higher = thermal stabilisation; K562 cells, 10 uM, 30 min; active = over 0.2 and 3.5 SD of the protein, either way, in both replicates (recomputed)
How it was run: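 Soluble protein was quantified by TMTpro 16plex LC-MS/MS after channel sums were equalised. It was obtained as the supernatant after 21,000xg for 90 min from pooled aliquots of K562 cells (2×10^6 cells/mL, 10 μM compound, 30 min) heated for 3 min across 48°C-58°C and extracted in PBS with 0.5% NP-40 at 4°C. Thermal stability values are relative to control samples and come from duplicates. They are given as log2 fold changes.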

Row | Target | log2 fold change
1 | IL18 (UniProt Q14116) | inactive: -0.061
2 | ITIH2 (UniProt P19823) | inactive: 0.27
3 | INHBE (UniProt P58166) | inactive: 0.044
4 | IGKC (UniProt P01834) | inactive: -0.117
5 | IKBKG isoform 2 (UniProt Q9Y6K9) | inactive: 0.022
6 | IRAK1 (UniProt P51617) | inactive: 0.116
7 | IRGQ (UniProt Q8WZA9) | inactive: -0.025
8 | INTS2 (UniProt Q9H0H0) | inactive: 0.127
9 | IGHG1 (UniProt P01857) | inactive: -0.037
10 | IQGAP1 (UniProt P46940) | inactive: -0.029
11 | IPO4 isoform 2 (UniProt Q8TEX9) | inactive: 0.068
12 | INTS8 (UniProt Q75QN2) | inactive: -0.001
13 | IFI35 isoform 2 (UniProt P80217) | inactive: 0.034
14 | INTS10 (UniProt Q9NVR2) | inactive: -0.118
15 | ISY1 isoform 1 (UniProt Q9ULR0) | inactive: 0.029
16 | IGSF1 isoform 4 (UniProt Q8N6C5) | inactive: -0.11
17 | INO80E (UniProt Q8NBZ0) | inactive: -0.012
18 | IGBP1 (UniProt P78318) | inactive: -0.028
19 | IDH2 (UniProt P48735) | inactive: -0.012
20 | INTS9 (UniProt Q9NV88) | inactive: 0.05
21 | IGSF3 (UniProt O75054) | inactive: -0.102
22 | ISOC1 (UniProt Q96CN7) | inactive: -0.022
23 | ITM2A (UniProt O43736) | inactive: 0.064
24 | IGHA1 (UniProt P01876) | inactive: -0.19
25 | IREB2 (UniProt P48200) | inactive: 0.062
26 | ITGAV (UniProt P06756) | inactive: 0.046
27 | IKBIP isoform 4 (UniProt Q70UQ0) | inactive: 0.016
28 | INAFM2 (UniProt P0DMQ5) | inactive: -0.177

From entry 26 to 27, as listed above:
Row | Target | log2 fold change
26 | ITGAV (UniProt P06756) | inactive: 0.046
27 | IKBIP isoform 4 (UniProt Q70UQ0) | inactive: 0.016
